Measurements reported in paper PMC3861103.

Molecular target: T1, 6xHis-MBP-NHR-25 DBD (unmodified) (Caenorhabditis elegans) (UniProt Q19345)
T1 sequence (looked up): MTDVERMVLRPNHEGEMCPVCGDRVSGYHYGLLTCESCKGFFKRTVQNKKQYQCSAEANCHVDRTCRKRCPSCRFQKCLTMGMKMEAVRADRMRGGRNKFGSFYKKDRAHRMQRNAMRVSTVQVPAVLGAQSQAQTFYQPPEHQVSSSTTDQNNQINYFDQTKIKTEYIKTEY
Assay: EMSA
Conditions: 1 uM DNA, 50 mM Tris pH 8.0, 150 mM NaCl, 10 mM MgCl2, 10 mM DTT, 10 mM ATP, 400 ug/ml BSA, 1 uM dsDNA, 500 nM protein (200-700 nM titration), room temperature 30 min, recombinant protein, residues 1-173, protein details: N-terminal 6xHis-MBP

Sequence | binding result | binding result (500 nM protein)
CTAAAGGGAGAAAAGGTCATAGCGGCCAGTCAAAACCAAGGGCGACAG (double strand) [2xNR5RE MUT] | binds more weakly | 
GATCCGCCAGGCACTGTCCCCCAATTTCACCTTTGGTGTTGATAAGATCCC / TCGAGGGATCTTATCAACACCAAAGGTGAAATTGGGGGACAGTGCCTGGCG [MIS MUT] |  | binds more weakly

A weaker result is weaker than the reference pair of the same experiment. Where a protein sequence is shown, tags need not be part of it.
